PubChem BioAssay AID1259405 | NCATS | 2018
Shown is a random part of about 50,000 reagents tested. Of all reagents, about 4,000 (8%) are marked active. 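Mouse siRNA library applied to hamster cells; one well for each siRNA.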 A number with no mark means an inactive call. The numbers tell different reagents against one gene apart.

Purpose: 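Mouse-designed siRNAs used to find CHO productivity engineering targets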 (primary screen)
System: Chinese hamster CHO-K1 ovary cells with stable secreted eGFP expression
Reagents: single siRNA against mouse genes, 0.8 pmol siRNA per well (2 µl of 400 nM stock)
Duration: 3 days
Measured: 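Per-well intracellular GFP measured by laser scanning cytometry, plus viability from ATP luminescence, each relative to plate median of non-targeting control wells, in %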
Direction: GFP, % of control: higher = more GFP per well, higher productivity; viability (ATP), % of control: higher = more viable cells (more ATP)
Active means: 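a knock-down is called active if GFP reaches 120% or more of non-targeting control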

Prdm16 #1
- GFP, % of control: 58.9
- viability (ATP), % of control: 72.5

Prdm16 #2
- GFP, % of control: 86.8
- viability (ATP), % of control: 51.7

Prdm16 #3
- GFP, % of control: 81.8
- viability (ATP), % of control: 100

Zfp385a #1
- GFP, % of control: 111
- viability (ATP), % of control: 99.8

Zfp385a #2
- GFP, % of control: 86.5
- viability (ATP), % of control: 99.6

Zfp385a #3
- GFP, % of control: 57
- viability (ATP), % of control: 64.4

Continued, starting with the last 2 of the part before.
Zfp385a #2
- GFP, % of control: 86.5
- viability (ATP), % of control: 99.6

Zfp385a #3
- GFP, % of control: 57
- viability (ATP), % of control: 64.4

Scfd2 #1
- GFP, % of control: 111
- viability (ATP), % of control: 113

Scfd2 #2
- GFP, % of control: 78.4
- viability (ATP), % of control: 68.8

Scfd2 #3
- GFP, % of control: 77.2
- viability (ATP), % of control: 89.3

Gdf6 #1
- GFP, % of control: 66.8
- viability (ATP), % of control: 64.7

Gdf6 #2
- GFP, % of control: 55.8
- viability (ATP), % of control: 24.8

Gdf6 #3
- GFP, % of control: 70.4
- viability (ATP), % of control: 77.3

Srsf11 #1
- GFP, % of control: 83.2
- viability (ATP), % of control: 80.7

Srsf11 #2
- GFP, % of control: 114
- viability (ATP), % of control: 79.4

Srsf11 #3
- GFP, % of control: 70.2
- viability (ATP), % of control: 81.1

Klf5 #1
- GFP, % of control: 94.5
- viability (ATP), % of control: 110

Klf5 #2
- GFP, % of control: 70.9
- viability (ATP), % of control: 76.7

Klf5 #3
- GFP, % of control: 83.4
- viability (ATP), % of control: 94.3
